# Several values for one entry are separate records, joined by “and”; a condition that tells them apart may be missing. Identical values can stand only once. Hit rate of the full screen: of about 410,000 compounds, about 18,000 (4.4%) were called active. The inconclusive results got no clear call from the source; some entries with a clear call stand among them for comparison. No stated cut-off is given here; in the data, active means activity change below about -60%; inconclusive means no clear call, values can overlap the other calls; inactive means above about -39%.
# Experiment: qHTS Assay for inhibitors of the human cytomegalovirus (HCMV)
# Conditions: HFF cells, HCMV-luciferase reporter, 72 h; at 57.5 µM; stronger effect = lower value
# Method in brief: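 Cell-based, HFFs, 1000 cells/well, 16 h 37C; cpds in DMSO + HCMV-luc, MOI 1 PFU/cell; 72 h 37C; OneGlo luminescence after 5 min RT; norm. to buffer vs Salinomycin 10uM.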
# On the % scale 0 is the no-effect control and ±100 the full control effect.
row,SMILES,"activity change, negative = inhibition"
1,Cc1cccc(OCc2ccccc2)n1,inconclusive: -44.7%
2,Cc1ccc(/C=N/NC(=O)c2ccccc2OCc2ccc(F)cc2)o1,inconclusive: -53.5%
3,CCN1/C(=C/C=C/C=C/C=C/c2sc3ccccc3[n+]2CC)Sc2ccccc21,active: -95.6%
4,Cc1cccn2c(CNCC3(c4ccccc4)CCCC3)c(C(=O)N3CCOCC3)nc12,active: -101%
5,Cc1ccc(/C=C(\C#N)C(=O)NCC2CCCO2)o1 (centres undefined),inconclusive: -44.1%
6,COc1ccc(OC)c(S(=O)(=O)Nc2ccc(-c3ccc4nncn4n3)cc2)c1,inconclusive: -50.4%
7,Cc1n[nH]c(C)c1CCCCOc1ccccc1[N+](=O)[O-],inconclusive: -48.2%
8,Cc1cc(C)cc(Nc2nc(-c3ccc(S(=O)(=O)N4CCCC4)cc3)cs2)c1,active: -77.1%
9,COc1ccc(S(=O)(=O)N2CCN(C(=O)NCc3ccc(OC)c(OC)c3)CC2)cc1,inconclusive: -43%
10,O=c1[nH]c2ccccc2nc1/C=C(\O)c1cccs1,inactive: 99.7%
11,COc1ccccc1Nc1nnc(SCC(=O)c2cc(C)n(CC3CCCO3)c2C)s1 (centres undefined),active: -76.1%
12,COc1cc(NC(=O)Nc2cccc(-c3noc(C)n3)c2)cc(OC)c1OC,active: -77.1%
13,CC(C)(C)NC(=S)NNC(=O)[C@H]1C[C@@H]1c1ccccc1,inactive: 3.63%
14,O=C(COC(=O)/C=C/c1ccc(OC(F)F)cc1)NCCN1C(=O)CSC1=O,inactive: 46.9%
15,CCOC(=O)c1ncccc1NC(=O)CC(=O)Nc1cccnc1C(=O)OCC,inconclusive: -42.2%
16,Nc1cc2c(cc1Cl)-c1ccccc1C2=NO,inconclusive: -45.7%
17,Cc1c(S(=O)(=O)N2CCCC(C(=O)O)C2)cnn1C (centres undefined),inconclusive: -40%
18,CC(=O)N1CCOc2ccc(S(=O)(=O)N3CCC(C(=O)NCc4ccc(C)cc4)CC3)cc21,inactive: -31%
19,O=C(CCN1C(=O)/C(=C/c2ccc(F)cc2)SC1=S)NCCc1ccc(O)cc1,inconclusive: 0%
20,COc1ccc(-n2c(=S)[nH]c3cc(C(=O)NCc4ccccc4)ccc3c2=O)c(OC)c1,inconclusive: -48.1%
21,O=C(Nc1ccccc1)Nc1ccc(F)c([N+](=O)[O-])c1,inconclusive: -45.9%

row,SMILES,"activity change, negative = inhibition"
1,CN(C(=O)COc1nnc(-c2cccs2)c(-c2cccs2)n1)c1ccccc1,inconclusive: -47.2%
2,Cc1c(C)n(Cc2ccccc2)c2ccc(C(=O)OCCCN(C)C)cc12,active: -62.6%
3,O=C(Cc1ccc(F)cc1)N1CCC(N2CCC(C(=O)N3CCOCC3)CC2)CC1,inconclusive: -50.5%
4,Cc1cc(/C=C2/SC(=S)N(c3cccc(Cl)c3)C2=O)c(C)n1-c1cccnc1,active: -93.2%
5,CC1CCCC(NC(=O)c2cccc(S(=O)(=O)NCc3ccccc3)c2)C1C (centres undefined),inconclusive: -52.5%
6,Cc1ccc(N(C(=O)c2snc(C(N)=O)c2N)C(C(=O)NCC2CCCO2)c2ccc(C)o2)c(C)c1 (centres undefined),inactive: -7.38%
7,CC(C)(C)c1ccc(OCC(=O)Nc2ccc(S(=O)(=O)Nc3ncccn3)cc2)cc1,inactive: 10.9%
8,O=C(Nc1ccc(C(=O)O)cc1)/C(=C\c1ccco1)NC(=O)c1ccco1,inactive: 0.177%
9,O=C(NCc1nc2ccccc2[nH]1)C1=C[C@H](C2CCCCC2)C[C@H](OCc2ccc(CO)cc2)O1,active: -70.2%
10,COCCNC(=O)c1nn2c(C(F)(F)F)cc(-c3ccccc3)nc2c1Cl,inactive: 19.1%
11,Cc1oc2ncnc(N3CCCCC3)c2c1C(=O)N1CCN(c2cccc(Cl)c2)CC1,inactive: 2.67%
12,COc1ccc(-c2ccc3c(c2)[C@@H]2C[C@H](N(C)C(=O)C(C)(C)C)[C@H]([C@H](C)O)C(=O)N2CC3)cc1,inactive: -1.74%
13,Cc1ccc(NC(=O)CNC2CCS(=O)(=O)C2)cc1C (centres undefined),inconclusive: -41.5%
14,CC(C)C(=O)N1CCN(c2nc(-c3ccc(Cl)cc3)cs2)CC1,active: -70.4%
15,O=c1[nH]c(O)c(N=Nc2ccc3c(c2)OCCO3)c(=O)[nH]1,active: -82.1%
16,Cc1ccc(S(=O)(=O)NCCC(=O)N2CCCCCCC2)cc1,inactive: -37.9%
17,COc1ccc(NC(=O)CSc2nc3sc(C)c(C)c3c(=O)n2Cc2ccco2)cc1,inactive: -9.08%
18,CC(C)(C)c1ccc(C(=O)N2CCC2(C)C(=O)Nc2cccc(C#N)c2)cc1 (centres undefined),inconclusive: -44.7%
19,O=S(=O)(Cc1ccccc1)Nc1ccc(S(=O)(=O)N2CCCC2)cc1,inactive: -17.7%
20,COc1ccccc1N(CC(=O)Nc1ccc2c(c1)OCO2)S(=O)(=O)c1ccccc1,inconclusive: -56.4%
21,COc1cc(NC(=O)CCc2c(C)nc3cc(-c4ccccc4)nn3c2C)cc(OC)c1OC,active: -104%

row,SMILES,"activity change, negative = inhibition"
1,CC/C(=N\NC(=O)c1ccccc1)c1c(O)n(Cc2ccccc2)c(=O)[nH]c1=O,inactive: 0.333%
2,CC1CCc2nn(CC(=O)N3CCc4ccccc43)cc2C1 (centres undefined),inactive: 43.9%
3,CCCc1cc(=O)oc2cc(C)cc(OCC(=O)NCc3cccnc3)c12,inconclusive: -51.1%
4,Cc1nn(C(C)C(=O)N2CCN(c3ccc(Cl)cc3)CC2)c(=O)c2cc3occc3n12 (centres undefined),inconclusive: -49.4%
5,COc1ccc(-n2c(N)cc(=O)nc2SCC(=O)NC2CCCCC2)cc1,inconclusive: -40.4%
6,Cc1cccc(CS(=O)(=O)c2ncc(Cl)c(C(=O)Nc3c(C)cccc3C)n2)c1,inconclusive: -43.1%
7,CCOC(=O)N1CCC(Nc2c(N3CCN(c4cc(Cl)ccc4C)CC3)c(=O)c2=O)CC1,inconclusive: -59.4%
8,Cc1ccc(Cl)cc1NC(=O)c1oc2ccc(S(=O)(=O)N(C)C3CCCCC3)cc2c1C,inactive: -10.4%
9,O=C(/C=C/Nc1ccccc1Br)c1ccccn1,active: -85.4%
10,CC1CCCC(NC(=O)CSc2nnc(C(F)(F)F)n2C)C1C (centres undefined),inconclusive: -40.2%
11,Cc1cccc2cc(CN(CC3CCCO3)S(=O)(=O)c3ccccc3)c(=O)[nH]c12 (centres undefined),inconclusive: -54.4%
12,Cc1cc(OCCCC(=O)Nc2cccc(-n3cnnn3)c2)ccc1Cl,inconclusive: -50.7%
13,CN(CC(=O)NCCc1ccc(S(N)(=O)=O)cc1)CC(=O)Nc1ccc(Cl)c(C(F)(F)F)c1,inconclusive: -50.7%
14,O=C([C@H](Cc1ccccc1)NS(=O)(=O)c1ccc(Cl)cc1)N1CC[C@@]2(O)CCCC[C@H]2C1,inactive: -36.6%
15,CCn1c(SCC(=O)NCC2CCCO2)nc2c(c1=O)SC(C)C2 (centres undefined),inconclusive: -50.4%
16,COc1ccc(NC(=O)CSc2nc(C)c3c(c2C#N)CCCC3)cc1,inconclusive: -42.9%
17,Cc1cc[n+](CC[n+]2ccc(C)cc2)cc1,inactive: -21.2%
18,CCN1CCN(CCNC(=O)c2ccc3c(c2)N(Cc2ccc(F)cc2)C(=O)/C(=C/c2ccccc2)S3)CC1,active: -80.9%
19,Cc1cc(C)c(NC(=O)COC(=O)CCc2ccc(S(=O)(=O)N3CCCCC3)cc2)c(C)c1,inconclusive: -42.5%
20,COc1cccc(N2CCN(C(=O)CCS(=O)(=O)c3ccc4c(c3)oc(=O)n4C)CC2)c1,inactive: 1.76% and inactive: 0%
21,COc1ccc(/C=N\NC(=O)c2c(C)nc3ccc(Br)cn23)cc1,active: -68.8%

row,SMILES,"activity change, negative = inhibition"
1,Cc1cccc(C)c1OCC(=O)Nn1c(COc2ccccc2)nc2ccccc2c1=O,inconclusive: -40.4%
2,CCC1C/C(=C\c2cccnc2)C(=O)/C(=C/c2cccnc2)C1 (centres undefined),active: -98.3%
3,CCOC(=O)c1c(C)[nH]c(C)c1S(=O)(=O)N1CCN(c2cccc(C(F)(F)F)c2)CC1,active: -101%
4,Cc1ccc([C@@H]2C[C@H]3[C@@H](CN2S(=O)(=O)c2ccc(C)cc2)C(=O)C[C@@H](c2ccc(Cl)cc2)N3S(=O)(=O)c2ccc(C)cc2)cc1,inconclusive: -42.6%
5,Cc1cn2c(=O)cc(COC(=O)c3cccc(NC(=O)c4ccccc4C)c3)nc2s1,inconclusive: -41%
6,COc1ccc(-n2nc(C)c3c(C(F)(F)F)cc(-c4cccnc4)nc32)cc1,active: -72.6%
7,Cc1ccc(-n2nc3c(=O)n(CC(=O)NCCC4=CCCCC4)nc(C)c3c2C)cc1,inconclusive: -44.8%
8,CN(C)Cc1ccc(-c2nc3cccc4c3n2CCNC4=O)cc1,inconclusive: -58.4%
9,CS(=O)(=O)N1CCN(c2ccc([N+](=O)[O-])cc2F)CC1,inconclusive: -41.7%
10,O=C(COC(=O)c1ccc(Cl)cc1O)Nc1cccnc1Cl,inactive: 68.8%
11,COCCNC(=O)/C=C/c1c(Cl)cccc1Cl,inconclusive: -47.2%
12,O=C(Nc1cccc(F)c1)C1CCN(S(=O)(=O)c2cccc3nsnc23)CC1,inconclusive: -59.1%
13,CCN(CC(=O)Nc1cc(Cl)ccc1Cl)C(=O)c1ccc(-n2cccn2)cc1,inconclusive: -52.2%
14,CN(C)CCn1c(SCc2ccccc2C#N)nc2c(sc3ccccc32)c1=O,active: -67.3%
15,CCOc1ccc(C(=O)NC(=S)Nc2ccccc2N2CCC(C)CC2)cc1[N+](=O)[O-],active: -96.8%
16,COc1cccc(OC)c1C1=NCC(=O)Nc2c1oc1ccc(Br)cc21,active: -94.8%
17,CCOc1ccc(N2Cc3ccccc3C2)cc1,inactive: 49.5%
18,CCOC(=O)c1cc(NC(=O)c2ccccc2)c(=O)n2c1oc1ccccc12,active: -71.1%
19,COc1ccc(N2C(=O)CC(N3CCN(c4ccccc4F)CC3)C2=O)cc1 (centres undefined),inactive: -0.389%
20,CCCCCCCCCCCCCCCC[N+](C)(C)CCl,inconclusive: -41.9%
21,COc1ccc(CNC(=O)CCCn2nc(C)c3c(C)n(-c4ccccc4)nc3c2=O)cc1,inconclusive: -44.2%

# Source: PubChem BioAssay AID1259415 (National Center for Advancing Translational Sciences (NCATS), 2018)
